The list is a part of this screen's results and no random one: it gathers tests that were run many times, whatever their T/C, doses with no T/C, and many T/C values between a quarter and a half above the control. Other doses and runs of a compound stand elsewhere. T/C gives the treated animals as a percentage of the vehicle group. Some doses have a count of surviving animals in place of a T/C: the source holds a T/C of zero for them, seemingly a mark for toxic or unscored doses. Some doses without a T/C left all or most animals alive at the check, yet need not have been tolerated: survival well below the control is almost never listed, so the zero probably covers shortened survival too. Survivors were counted at the toxicity check, usually on the fifth day, unless a day is given; later deaths do not show. Schedules are NCI's codes, read here as Q, the interval in days (D) or hours (H), X, the number of doses. Some doses were run more than once; the results are listed from low to high. For survival time, this PubChem deposit counts one and a half times the control or more as active, and values a quarter to a half above the control carry no call in these data; other NCI protocols may use other cut-offs. Some T/C values carry the count of animals alive at the toxicity check (mostly the fifth day); where none is given, no animal had died by that day.

The values that follow come from PubChem BioAssay AID330 (DTP/NCI, 2004).

The subject of this assay is P388 leukemia ip, CD2F1 mice, survival T/C. Nature of the assay: NCI In Vivo Anticancer Drug Screen. Data for tumor model P388 Leukemia (intraperitoneal) in CD2F1 (CDF1) mice. Conditions: T/C endpoint: median survival time, higher T/C = longer survival.
[1] abbreviates: dose: 200.0 mg/kg/injection, schedule: Q01DX001 (ip), vehicle: saline with Tween-80.
The mark [2] stands for this setting: dose: 400.0 mg/kg/injection, schedule: Q01DX001 (ip), vehicle: saline with Tween-80.
Setting [3] is: dose: 240.0 mg/kg/injection, schedule: Q01DX005 (ip), vehicle: saline with Tween-80.
[4] abbreviates: dose: 100.0 mg/kg/injection, schedule: Q01DX005 (ip), vehicle: saline with Tween-80.
The mark [5] stands for this setting: dose: 200.0 mg/kg/injection, schedule: Q01DX005 (ip), vehicle: saline with Tween-80.
Where [6] appears, read: dose: 200.0 mg/kg/injection, schedule: Q01DX009 (ip), vehicle: saline with Tween-80.
Where [7] appears, read: dose: 100.0 mg/kg/injection, schedule: Q01DX009 (ip), vehicle: Klucel (hydroxypropylcellulose) (HPC).
[8] abbreviates: dose: 200.0 mg/kg/injection, schedule: Q01DX009 (ip), vehicle: Klucel (hydroxypropylcellulose) (HPC).
The mark [9] stands for this setting: dose: 50.0 mg/kg/injection, schedule: Q01DX009 (ip), vehicle: saline.
Setting [10] is: dose: 100.0 mg/kg/injection, schedule: Q01DX009 (ip), vehicle: saline.
Setting [11] is: dose: 100.0 mg/kg/injection, schedule: Q01DX009 (ip), vehicle: saline with Tween-80.
Where [12] appears, read: dose: 50.0 mg/kg/injection, schedule: Q01DX009 (ip), vehicle: saline with Tween-80.

Turning to `N#Cc1[nH]ncc1[N+](=O)[O-]`, the survivor count is 0 of 6 (dose: 100.0 mg/kg/injection, schedule: Q01DX001 (ip), vehicle: saline with Tween-80); 0 of 6 under setting [1]; 0 of 6 under setting [2].
With `CC1=C(C(=O)CC(=O)C(=O)Nc2ccc(Cl)cc2Cl)Sc2ccccc2N1`, under setting [3], the survivor count was 2 of 6.
For `CCCCN1CCN(c2ccc([N+](=O)[O-])c3no[n+]([O-])c23)CC1`, under “dose: 64.0 mg/kg/injection, schedule: Q04DX003 (ip), vehicle: suspension in saline”, the T/C is 127 % of control.
For `C=C(C)C1CC=C(CCCC(C)COC2OCC(OC(=O)/C(C)=C/CCC3=CCC(C(=C)C)CC3O)C(O)C2O)CC1` (stereo unspecified), the survivor count (dose: 86.0 mg/kg/injection, schedule: Q01DX005 (ip), vehicle: Klucel (hydroxypropylcellulose) (HPC)) is given as 0 of 6.
Take `CCCCCC(=O)NC(Cc1ccc(N(CCCl)CCCl)cc1)C(=O)O` (stereo unspecified): the T/C (dose: 5.3 mg/kg/injection, schedule: Q01DX009 (ip), vehicle: saline) is 136 % of control; the T/C (dose: 10.6 mg/kg/injection, schedule: Q01DX009 (ip), vehicle: saline) was 140 % of control; the T/C (dose: 10.6 mg/kg/injection, schedule: Q03HX008 (ip), vehicle: saline) is 130 % of control. Also, for the setting “dose: 42.4 mg/kg/injection, schedule: Q03HX008 (ip), vehicle: saline”, the survivor count is 0 of 10.
`COc1ccc(C2NC(C(=O)O)CS2)cc1OC` (stereo unspecified): the survivor count (dose: 100.0 mg/kg/injection, schedule: Q01DX009 (ip), vehicle: suspension in saline) is given as 6 of 6.
For the compound `CNC(=O)OCc1c(COC(=O)NC)c(-c2ccccc2)n(-c2ccccc2)c1C`, the survivor count reads like this: under setting [4], 6 of 6; under setting [5], 4 of 6.
Consider `CC(C)=CCC/C(C)=C/Cc1ccccc1`, for which, under setting [6], the T/C was 127 % of control. The survivor count (dose: 400.0 mg/kg/injection, schedule: Q01DX009 (ip), vehicle: saline with Tween-80) is listed as 5 of 6.
In the case of `O=C(C[n+]1ccsc1Br)c1ccccc1`, under setting [5], the survivor count is 0 of 5.
Take `C(#CC1CO1)CCCC#CC1CO1` (stereo unspecified): the survivor count under setting [4] is listed as 3 of 6 and the survivor count under setting [5] was 0 of 6.
On to `[Se]=P(N1CCOCC1)(N1CCOCC1)N1CCOCC1`, for which, for the setting “dose: 55.0 mg/kg/injection, schedule: Q01DX001 (ip), vehicle: Klucel (hydroxypropylcellulose) (HPC)”, the survivor count is reported as 0 of 6.
As to `N#Cc1nccnc1C#N`, the survivor count is 3 of 6 under setting [7] and 0 of 6 under setting [8].
As for `C=CC1(C)OC(=NC(C)(C)CO)c2cc(C)c(OC)cc21` (stereo unspecified), under setting [5], the survivor count is 3 of 6.
On to `CC(C)NC(=O)c1ccccc1Sc1ccccc1CN(C)C(C)C`, for which the survivor count is recorded as 0 of 6 under setting [1] and 0 of 6 under setting [2].
For the compound `COc1cc2c(cc1OC(C)=O)C(=O)CCC=C2`, the T/C is, setting by setting: (dose: 100.0 mg/kg/injection, schedule: Q04DX003 (ip), vehicle: saline) 125 % of control; (dose: 200.0 mg/kg/injection, schedule: Q04DX003 (ip), vehicle: saline) 125 % of control.
For `CC1(C)NC(=O)N(Cc2ccccc2)C1=O`, the T/C (dose: 400.0 mg/kg/injection, schedule: Q01DX009 (ip), vehicle: saline) was 130 % of control [5 of 6 alive].
With `C[N+]1(Cc2ccc(C(N)=O)cc2)CCC(CCC2CC[N+](C)(Cc3ccc(C(N)=O)cc3)CC2)CC1` (stereo unspecified), the survivor count reads like this: (dose: 6.25 mg/kg/injection, schedule: Q01DX005 (ip), vehicle: saline with Tween-80) 0 of 5; (dose: 12.5 mg/kg/injection, schedule: Q01DX005 (ip), vehicle: saline with Tween-80) 0 of 5; (dose: 25.0 mg/kg/injection, schedule: Q01DX005 (ip), vehicle: saline with Tween-80) 0 of 5; (dose: 50.0 mg/kg/injection, schedule: Q01DX005 (ip), vehicle: saline with Tween-80) 0 of 5; under setting [4], 0 of 5; under setting [5], 0 of 5.
As for `Cn1cccc([N+](=O)[O-])c1=O`, the T/C under setting [9] was 99 [5 of 6 alive], 105, 109 % of control. Besides, the survivor count is reported as 2 of 6 under setting [9]; 0 of 6 (dose: 90.0 mg/kg/injection, schedule: Q01DX009 (ip), vehicle: Klucel (hydroxypropylcellulose) (HPC)); 0 of 6 under setting [10]; 0 of 6 (dose: 135.0 mg/kg/injection, schedule: Q01DX009 (ip), vehicle: Klucel (hydroxypropylcellulose) (HPC)); 0 of 6 (dose: 200.0 mg/kg/injection, schedule: Q01DX009 (ip), vehicle: saline).
For the compound `CCC1CCCN(CCc2c(C3(CO)CCC(CO)c4c(CCN5CCCC(CC)C5)c5ccccc5n43)[nH]c3ccccc23)C1` (stereo unspecified), the survivor count (dose: 5.59 mg/kg/injection, schedule: Q01DX009 (ip), vehicle: saline with Tween-80) was 4 of 4.
`CCOC(=O)C(NC(=O)C1(O)C(O)C2(CC)C=CCN3CCC4(c5cc(C6(C(=O)OC)CC7CN(CCc8c6[nH]c6ccccc86)CC(O)(CC)C7)c(OC)cc5N(C)C14)C32)C(C)CC` (stereo unspecified): the T/C reads like this: (dose: 1.0 mg/kg/injection, schedule: Q01DX001 (ip), vehicle: saline) 140 % of control; (dose: 2.0 mg/kg/injection, schedule: Q01DX001 (ip), vehicle: saline) 136 % of control; (dose: 4.0 mg/kg/injection, schedule: Q01DX001 (ip), vehicle: saline) 147 % of control. Further, the survivor count is 0 of 6 (dose: 16.0 mg/kg/injection, schedule: Q01DX001 (ip), vehicle: saline); 0 of 6 and 2 of 6 (dose: 32.0 mg/kg/injection, schedule: Q01DX001 (ip), vehicle: saline).
Take `CC(=O)c1c(OCC(O)CNC(C)C)ccc2c(C)cc(=O)oc12` (stereo unspecified): under setting [5], the survivor count is reported as 0 of 6.
For the compound `CCOC(=O)c1ccc(NC(=O)Nc2nncs2)cc1`, the T/C (dose: 25.0 mg/kg/injection, schedule: Q01DX009 (ip), vehicle: distilled water + Tween-80) is 128 % of control; the T/C (dose: 50.0 mg/kg/injection, schedule: Q01DX009 (ip), vehicle: distilled water + Tween-80) is 140 % of control; the T/C (dose: 100.0 mg/kg/injection, schedule: Q01DX009 (ip), vehicle: distilled water + Tween-80) was 134 % of control.
As for `c1ccc2c(CCN3CCCCC3)c[nH]c2c1`, the survivor count reads like this: (dose: 120.0 mg/kg/injection, schedule: Q01DX005 (ip), vehicle: saline with Tween-80) 0 of 6; under setting [3], 0 of 6.
Take `[O-][n+]1nc(Cl)nc2ccccc21`: the survivor count was 4 of 6 (dose: 40.0 mg/kg/injection, schedule: Q01DX009 (ip), vehicle: Klucel (hydroxypropylcellulose) (HPC)); 0 of 6 under setting [7]; 1 of 6 under setting [8]; 0 of 6 (dose: 400.0 mg/kg/injection, schedule: Q01DX009 (ip), vehicle: Klucel (hydroxypropylcellulose) (HPC)).
Consider `NC(=S)N/N=C\c1nccc2ccc(N)cc12`, for which the survivor count is 6 of 6 under setting [11] and 4 of 6 under setting [6].
`CCN(CC)CCOC(=O)C(c1ccccc1)C1(O)CCCCC1` (stereo unspecified): for the setting “dose: 200.0 mg/kg/injection, schedule: Q01DX005 (ip), vehicle: saline”, the survivor count is recorded as 0 of 5.
Consider `CCOC(=O)c1sc(=S)n(C)c1C`, for which the survivor count is 1 of 6 under setting [4] and 0 of 6 under setting [5].
On to `O=C1C(=O)C(Cl)=C(Cl)C(Cl)=C1Cl`, for which the survivor count is listed as 5 of 6 (dose: 12.5 mg/kg/injection, schedule: Q01DX009 (ip), vehicle: saline with Tween-80) and 6 of 6 under setting [12].
Take `Cc1cc(-c2ccccc2)c2ccccc2c1N(CC(=O)O)S(=O)(=O)c1ccccc1`: the T/C is 130 % of control under setting [12] and 140 % of control under setting [11].
On to `O=S(=O)(O)c1c(O)ccc2nc3ccccc3nc12`, for which, under setting [10], the T/C is 125 % of control and the survivor count was 5 of 6.
